# Laboratory results: PMC13410438 (Small (Weinheim an Der Bergstrasse, Germany), 2026)
# Test: general procedure: Fmoc solid-phase peptide synthesis; 2-chlorotrityl chloride (2-CTC) resin (100-200 mesh); HBTU, HOBt, DIPEA
# Conditions: whole synthesis
substance,measurement,setting,value
"PEPTIDE1{[Ole].[Dap].K.K.K}|PEPTIDE2{[Ole]}$PEPTIDE1,PEPTIDE2,2:R3-1:R2$$$V2.0",isolated mass,,25.1 mg
same,isolated yield,scale of the general procedure 300.8 µmol,81%

# HELM strings list residues between dots; [ac] is acetyl, [am] amide, other brackets name non-standard units.
